{
  "sequences": {"note": "Protein sequences, listed by entry. Tags and fused reporters are not part of them. Lines headed by an entry give the natural chain unless they say otherwise; changes in a name come on top.", "UniProt Q9NRH1": "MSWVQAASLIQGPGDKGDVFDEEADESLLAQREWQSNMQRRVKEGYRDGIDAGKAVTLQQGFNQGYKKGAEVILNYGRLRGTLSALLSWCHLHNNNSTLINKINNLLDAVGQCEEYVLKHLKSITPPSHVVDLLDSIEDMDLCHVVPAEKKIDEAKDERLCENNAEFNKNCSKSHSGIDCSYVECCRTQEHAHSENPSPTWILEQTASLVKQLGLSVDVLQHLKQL", "UniProt P37275": "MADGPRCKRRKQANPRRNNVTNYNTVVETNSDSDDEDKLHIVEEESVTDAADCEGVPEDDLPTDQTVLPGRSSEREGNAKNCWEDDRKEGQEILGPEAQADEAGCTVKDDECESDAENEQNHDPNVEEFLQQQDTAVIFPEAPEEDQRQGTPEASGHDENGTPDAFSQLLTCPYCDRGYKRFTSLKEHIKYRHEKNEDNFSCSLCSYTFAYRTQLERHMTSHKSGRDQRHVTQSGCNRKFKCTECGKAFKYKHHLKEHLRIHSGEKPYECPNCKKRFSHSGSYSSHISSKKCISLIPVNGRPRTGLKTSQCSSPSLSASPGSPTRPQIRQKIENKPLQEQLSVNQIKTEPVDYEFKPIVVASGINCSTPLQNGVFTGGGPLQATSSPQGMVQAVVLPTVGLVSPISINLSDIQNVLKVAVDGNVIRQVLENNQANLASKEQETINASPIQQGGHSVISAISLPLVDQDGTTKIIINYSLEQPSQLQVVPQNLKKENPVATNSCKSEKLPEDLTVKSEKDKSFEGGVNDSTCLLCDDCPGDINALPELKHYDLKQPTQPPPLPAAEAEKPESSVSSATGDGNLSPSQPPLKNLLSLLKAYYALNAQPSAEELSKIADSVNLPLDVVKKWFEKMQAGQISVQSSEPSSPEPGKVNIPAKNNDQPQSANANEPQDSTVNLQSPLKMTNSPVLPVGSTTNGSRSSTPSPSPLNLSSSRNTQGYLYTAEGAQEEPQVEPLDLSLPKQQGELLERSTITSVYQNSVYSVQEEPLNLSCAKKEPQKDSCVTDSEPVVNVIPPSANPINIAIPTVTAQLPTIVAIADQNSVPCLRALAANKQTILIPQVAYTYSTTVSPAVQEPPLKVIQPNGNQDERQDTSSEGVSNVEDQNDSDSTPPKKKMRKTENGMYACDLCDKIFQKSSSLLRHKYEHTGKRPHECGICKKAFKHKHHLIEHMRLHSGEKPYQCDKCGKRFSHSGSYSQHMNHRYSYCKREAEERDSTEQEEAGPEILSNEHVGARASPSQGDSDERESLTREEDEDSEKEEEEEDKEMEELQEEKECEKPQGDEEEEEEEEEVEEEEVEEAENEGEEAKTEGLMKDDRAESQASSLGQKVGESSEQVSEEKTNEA", "UniProt Q96K21": "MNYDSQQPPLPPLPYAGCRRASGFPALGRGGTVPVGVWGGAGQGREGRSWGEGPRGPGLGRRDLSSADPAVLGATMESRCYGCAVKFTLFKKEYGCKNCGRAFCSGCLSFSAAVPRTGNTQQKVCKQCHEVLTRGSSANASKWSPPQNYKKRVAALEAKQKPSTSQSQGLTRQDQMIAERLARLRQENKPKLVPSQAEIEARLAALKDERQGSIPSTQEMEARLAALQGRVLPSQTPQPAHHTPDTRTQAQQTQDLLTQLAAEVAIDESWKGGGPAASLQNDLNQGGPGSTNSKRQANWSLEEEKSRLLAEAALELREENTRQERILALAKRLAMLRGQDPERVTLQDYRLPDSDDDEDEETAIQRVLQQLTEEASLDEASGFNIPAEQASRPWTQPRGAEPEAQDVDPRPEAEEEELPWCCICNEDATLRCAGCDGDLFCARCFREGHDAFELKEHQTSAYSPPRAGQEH", "UniProt O43592": "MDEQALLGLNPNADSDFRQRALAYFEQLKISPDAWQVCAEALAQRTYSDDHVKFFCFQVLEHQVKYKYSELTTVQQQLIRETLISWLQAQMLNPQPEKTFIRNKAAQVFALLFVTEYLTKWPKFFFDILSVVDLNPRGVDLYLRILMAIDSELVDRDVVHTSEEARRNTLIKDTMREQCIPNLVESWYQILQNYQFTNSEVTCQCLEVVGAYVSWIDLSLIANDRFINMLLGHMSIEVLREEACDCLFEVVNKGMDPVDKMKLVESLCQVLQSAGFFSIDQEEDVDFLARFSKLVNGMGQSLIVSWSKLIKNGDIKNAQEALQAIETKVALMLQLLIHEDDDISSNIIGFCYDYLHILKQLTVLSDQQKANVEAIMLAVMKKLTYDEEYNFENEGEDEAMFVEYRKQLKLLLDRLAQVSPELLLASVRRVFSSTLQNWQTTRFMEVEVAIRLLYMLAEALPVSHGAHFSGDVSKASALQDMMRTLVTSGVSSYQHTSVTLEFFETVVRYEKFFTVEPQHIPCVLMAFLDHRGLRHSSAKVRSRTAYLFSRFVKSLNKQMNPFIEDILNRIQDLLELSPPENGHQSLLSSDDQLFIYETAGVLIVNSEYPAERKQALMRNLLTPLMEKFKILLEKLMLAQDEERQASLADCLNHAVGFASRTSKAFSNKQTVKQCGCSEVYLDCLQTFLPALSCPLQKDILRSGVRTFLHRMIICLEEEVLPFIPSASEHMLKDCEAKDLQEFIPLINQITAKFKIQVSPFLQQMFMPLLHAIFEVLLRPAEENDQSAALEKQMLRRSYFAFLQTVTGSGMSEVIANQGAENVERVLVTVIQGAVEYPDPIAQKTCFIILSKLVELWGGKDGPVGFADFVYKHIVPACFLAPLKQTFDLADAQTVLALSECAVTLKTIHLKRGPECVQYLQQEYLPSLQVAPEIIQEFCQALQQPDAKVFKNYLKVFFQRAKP", "UniProt Q96DA0": "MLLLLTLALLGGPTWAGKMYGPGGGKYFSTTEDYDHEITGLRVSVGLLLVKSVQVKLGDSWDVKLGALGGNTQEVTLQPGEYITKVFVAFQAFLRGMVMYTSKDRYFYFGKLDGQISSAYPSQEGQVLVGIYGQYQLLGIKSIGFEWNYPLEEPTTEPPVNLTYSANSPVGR", "UniProt O95365": "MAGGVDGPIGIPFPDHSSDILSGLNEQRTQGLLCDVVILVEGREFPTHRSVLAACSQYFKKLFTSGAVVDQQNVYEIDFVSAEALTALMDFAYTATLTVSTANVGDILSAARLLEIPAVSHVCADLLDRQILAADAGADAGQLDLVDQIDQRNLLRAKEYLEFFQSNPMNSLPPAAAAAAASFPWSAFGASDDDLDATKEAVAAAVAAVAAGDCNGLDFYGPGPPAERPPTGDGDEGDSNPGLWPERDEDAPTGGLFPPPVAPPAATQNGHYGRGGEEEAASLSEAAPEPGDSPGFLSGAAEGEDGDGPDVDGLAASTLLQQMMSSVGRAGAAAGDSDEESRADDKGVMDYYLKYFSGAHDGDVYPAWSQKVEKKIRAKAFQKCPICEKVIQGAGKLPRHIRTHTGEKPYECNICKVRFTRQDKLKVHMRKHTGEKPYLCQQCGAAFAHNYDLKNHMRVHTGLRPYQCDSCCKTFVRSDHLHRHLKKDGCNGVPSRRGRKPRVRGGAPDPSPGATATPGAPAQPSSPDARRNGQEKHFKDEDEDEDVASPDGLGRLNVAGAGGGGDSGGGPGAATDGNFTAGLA", "UniProt Q8IY57": "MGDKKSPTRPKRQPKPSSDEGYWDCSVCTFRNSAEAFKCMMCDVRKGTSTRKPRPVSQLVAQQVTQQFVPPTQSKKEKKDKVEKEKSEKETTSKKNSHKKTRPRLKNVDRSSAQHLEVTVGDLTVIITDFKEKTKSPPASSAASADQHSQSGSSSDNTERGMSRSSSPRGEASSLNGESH", "UniProt Q9NQH7": "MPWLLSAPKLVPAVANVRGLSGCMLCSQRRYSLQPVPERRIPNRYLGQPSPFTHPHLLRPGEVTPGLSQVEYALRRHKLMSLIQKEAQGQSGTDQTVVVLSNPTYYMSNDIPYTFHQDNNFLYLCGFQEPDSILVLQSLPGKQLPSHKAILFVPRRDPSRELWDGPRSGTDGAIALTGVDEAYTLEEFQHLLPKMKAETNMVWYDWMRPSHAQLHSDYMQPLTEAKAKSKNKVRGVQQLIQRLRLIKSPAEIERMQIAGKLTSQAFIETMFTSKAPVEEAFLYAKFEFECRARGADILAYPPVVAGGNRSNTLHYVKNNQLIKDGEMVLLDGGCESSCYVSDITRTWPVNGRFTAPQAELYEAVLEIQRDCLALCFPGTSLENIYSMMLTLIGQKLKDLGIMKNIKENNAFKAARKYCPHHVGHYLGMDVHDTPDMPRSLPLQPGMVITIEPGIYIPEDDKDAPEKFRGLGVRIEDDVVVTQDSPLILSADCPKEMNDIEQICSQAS", "UniProt Q9H5J0": "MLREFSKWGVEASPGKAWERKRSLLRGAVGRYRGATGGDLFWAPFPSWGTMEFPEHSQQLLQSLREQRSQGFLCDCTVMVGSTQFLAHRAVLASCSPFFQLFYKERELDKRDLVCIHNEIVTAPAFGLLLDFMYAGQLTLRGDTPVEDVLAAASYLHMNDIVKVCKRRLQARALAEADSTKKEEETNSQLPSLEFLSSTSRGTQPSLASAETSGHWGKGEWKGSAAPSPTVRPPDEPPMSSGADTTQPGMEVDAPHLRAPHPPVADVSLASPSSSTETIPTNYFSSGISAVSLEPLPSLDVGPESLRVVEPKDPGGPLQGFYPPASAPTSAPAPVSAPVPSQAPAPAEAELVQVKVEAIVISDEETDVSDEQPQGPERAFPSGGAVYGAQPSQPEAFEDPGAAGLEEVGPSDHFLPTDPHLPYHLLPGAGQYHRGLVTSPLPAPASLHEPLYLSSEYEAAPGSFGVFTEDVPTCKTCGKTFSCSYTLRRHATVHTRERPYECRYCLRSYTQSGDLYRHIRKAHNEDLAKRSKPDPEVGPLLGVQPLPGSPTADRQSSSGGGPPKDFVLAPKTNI", "UniProt Q6FIF0": "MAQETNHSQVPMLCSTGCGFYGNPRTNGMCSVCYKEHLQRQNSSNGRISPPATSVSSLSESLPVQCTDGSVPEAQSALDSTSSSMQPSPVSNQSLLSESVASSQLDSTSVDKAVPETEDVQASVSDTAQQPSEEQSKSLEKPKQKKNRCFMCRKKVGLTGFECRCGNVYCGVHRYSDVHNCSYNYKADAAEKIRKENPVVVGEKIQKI", "UniProt Q9NUA8": "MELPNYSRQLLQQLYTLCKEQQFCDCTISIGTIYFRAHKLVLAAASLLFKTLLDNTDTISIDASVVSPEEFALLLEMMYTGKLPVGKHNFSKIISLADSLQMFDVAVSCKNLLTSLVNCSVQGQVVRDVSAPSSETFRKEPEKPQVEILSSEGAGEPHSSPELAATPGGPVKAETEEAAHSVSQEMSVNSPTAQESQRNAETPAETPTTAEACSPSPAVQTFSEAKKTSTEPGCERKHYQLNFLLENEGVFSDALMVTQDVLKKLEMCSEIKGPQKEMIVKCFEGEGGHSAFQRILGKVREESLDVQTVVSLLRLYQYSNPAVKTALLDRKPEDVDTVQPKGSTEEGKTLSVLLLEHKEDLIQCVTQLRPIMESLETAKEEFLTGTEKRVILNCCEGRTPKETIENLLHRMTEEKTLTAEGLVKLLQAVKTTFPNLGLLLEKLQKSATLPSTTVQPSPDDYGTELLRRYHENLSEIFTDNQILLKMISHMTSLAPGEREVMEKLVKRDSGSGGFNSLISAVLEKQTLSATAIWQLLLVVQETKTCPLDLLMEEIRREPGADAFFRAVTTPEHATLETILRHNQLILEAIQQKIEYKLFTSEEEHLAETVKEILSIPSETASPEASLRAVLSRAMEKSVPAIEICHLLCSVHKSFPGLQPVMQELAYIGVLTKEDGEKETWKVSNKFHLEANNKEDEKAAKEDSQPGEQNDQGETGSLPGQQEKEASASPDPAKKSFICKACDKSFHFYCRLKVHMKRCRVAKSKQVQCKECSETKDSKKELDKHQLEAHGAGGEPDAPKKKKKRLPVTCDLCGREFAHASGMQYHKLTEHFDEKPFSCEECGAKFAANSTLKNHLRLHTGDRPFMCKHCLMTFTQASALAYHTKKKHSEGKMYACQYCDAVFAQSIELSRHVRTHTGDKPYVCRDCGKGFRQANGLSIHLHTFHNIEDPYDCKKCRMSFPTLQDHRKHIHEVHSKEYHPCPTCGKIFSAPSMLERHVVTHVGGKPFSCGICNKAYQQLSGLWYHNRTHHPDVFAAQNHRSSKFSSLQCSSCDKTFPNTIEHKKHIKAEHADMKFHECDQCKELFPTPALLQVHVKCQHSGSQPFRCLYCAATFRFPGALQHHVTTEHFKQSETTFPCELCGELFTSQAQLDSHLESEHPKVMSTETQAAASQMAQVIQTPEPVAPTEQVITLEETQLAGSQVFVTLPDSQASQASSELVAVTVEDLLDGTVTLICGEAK", "UniProt Q9BW85": "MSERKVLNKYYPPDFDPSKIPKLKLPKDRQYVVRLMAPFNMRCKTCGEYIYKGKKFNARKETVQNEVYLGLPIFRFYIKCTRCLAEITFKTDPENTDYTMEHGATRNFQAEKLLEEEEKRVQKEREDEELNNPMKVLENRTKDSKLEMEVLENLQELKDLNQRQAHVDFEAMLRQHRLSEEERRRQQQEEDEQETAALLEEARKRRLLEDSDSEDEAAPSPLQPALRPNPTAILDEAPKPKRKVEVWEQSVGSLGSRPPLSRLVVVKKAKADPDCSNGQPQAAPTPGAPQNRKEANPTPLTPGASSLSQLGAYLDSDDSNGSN"},
  "source": "the supplement of paper PMC10849652",
  "note": "This is one part of the list.",
  "data": [
    {"compound": "CNC(=O)C1=CC=CC=C1NC2=NC(=NC=C2Cl)NC3=C(C=C(C=C3)N4CCOCC4)OC", "assay": "log2 fold change, soluble protein after heating vs DMSO (PISA); higher = thermal stabilisation; K562 lysate, 10 uM; active = over 0.2 and 3.5 SD of the protein, either way, in both replicates (recomputed)", "summary_of_the_method": "(§1)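 Quantification was by TMTpro 16plex LC-MS/MS with equalised channel sums, applied to the supernatant after 21,000xg for 90 min. Samples were crude K562 extract at 1 mg/mL protein in PBS pH 7.4 with 1 mM MgCl2, treated with 10 μM compound for 30 min, heated for 3 min across 48°C-58°C, pooled and brought to 0.5% NP-40 at 4°C. Values are log-two fold changes in thermal stability relative to solvent controls, from duplicates.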", "values": [
      {"target": "YAE1 (UniProt Q9NRH1)", "log2 fold change": "inactive: 0.079"},
      {"target": "ZC3H7A (UniProt Q8IWR0)", "log2 fold change": "inactive: 0"},
      {"target": "ZDHHC4 (UniProt Q9NPG8)", "log2 fold change": "inactive: -0.153"},
      {"target": "ZCRB1 (UniProt Q8TBF4)", "log2 fold change": "inactive: 0.082"},
      {"target": "ZDHHC2 (UniProt Q9UIJ5)", "log2 fold change": "inactive: -0.044"},
      {"target": "ZFPM2 (UniProt Q8WW38)", "log2 fold change": "inactive: 0.069"},
      {"target": "YWHAH (UniProt Q04917)", "log2 fold change": "inactive: -0.042"},
      {"target": "ZEB1 isoform 2 (UniProt P37275)", "log2 fold change": "inactive: -0.099"},
      {"target": "ZFYVE19 (UniProt Q96K21)", "log2 fold change": "inactive: -0.037"},
      {"target": "ZDHHC13 (UniProt Q8IUH4)", "log2 fold change": "inactive: 0.014"},
      {"target": "ZBTB24 (UniProt O43167)", "log2 fold change": "inactive: -0.068"},
      {"target": "XPOT (UniProt O43592)", "log2 fold change": "inactive: -0.004"},
      {"target": "ZBTB14 (UniProt O43829)", "log2 fold change": "inactive: -0.065"},
      {"target": "YIF1A (UniProt O95070)", "log2 fold change": "inactive: 0.032"},
      {"target": "ZADH2 (UniProt Q8N4Q0)", "log2 fold change": "inactive: -0.067"},
      {"target": "ZG16B (UniProt Q96DA0)", "log2 fold change": "inactive: -0.075"},
      {"target": "ZFPL1 (UniProt O95159)", "log2 fold change": "inactive: -0.01"},
      {"target": "ZBTB7A (UniProt O95365)", "log2 fold change": "inactive: 0.01"},
      {"target": "ZFYVE1 (UniProt Q9HBF4)", "log2 fold change": "inactive: 0.084"},
      {"target": "XRCC3 (UniProt O43542)", "log2 fold change": "inactive: -0.059"},
      {"target": "YAF2 isoform 5 (UniProt Q8IY57)", "log2 fold change": "inactive: 0.133"},
      {"target": "XPNPEP3 (UniProt Q9NQH7)", "log2 fold change": "inactive: -0.009"},
      {"target": "ZBTB3 (UniProt Q9H5J0)", "log2 fold change": "inactive: -0.02"},
      {"target": "ZC3H12C isoform 2 (UniProt Q9C0D7)", "log2 fold change": "inactive: -0.057"},
      {"target": "ZFAND5 (UniProt O76080)", "log2 fold change": "inactive: -0.055"},
      {"target": "ZBTB1 (UniProt Q9Y2K1)", "log2 fold change": "inactive: 0.081"},
      {"target": "ZBTB10 (UniProt Q96DT7)", "log2 fold change": "inactive: -0.032"},
      {"target": "ZFAND6 (UniProt Q6FIF0)", "log2 fold change": "inactive: 0.084"},
      {"target": "ZBTB2 (UniProt Q8N680)", "log2 fold change": "inactive: -0.093"},
      {"target": "ZBTB40 (UniProt Q9NUA8)", "log2 fold change": "inactive: 0.03"},
      {"target": "YY1AP1 isoform 9 (UniProt Q9H869)", "log2 fold change": "inactive: 0.337"},
      {"target": "YJU2 (UniProt Q9BW85)", "log2 fold change": "inactive: -0.017"}
    ]},
    {"compound": "CNC(=O)c1ccc(Nc2ncc(C(F)(F)F)c(NCc3nccnc3N(C)S(C)(=O)=O)n2)cc1 [defactinib]", "assay": "log2 fold change, soluble protein after heating vs DMSO (PISA); higher = thermal stabilisation; K562 lysate, 10 uM; active = over 0.2 and 3.5 SD of the protein, either way, in both replicates (recomputed)", "summary_of_the_method": "as §1", "values": [
      {"target": "YAE1 (UniProt Q9NRH1)", "log2 fold change": "inactive: 0.092"},
      {"target": "ZC3H7A (UniProt Q8IWR0)", "log2 fold change": "inactive: 0.053"},
      {"target": "ZFYVE21 isoform 2 (UniProt Q9BQ24)", "log2 fold change": "inactive: 0.023"},
      {"target": "ZFP36L2 (UniProt P47974)", "log2 fold change": "inactive: -0.005"},
      {"target": "ZDHHC14 (UniProt Q8IZN3)", "log2 fold change": "inactive: -0.025"},
      {"target": "ZFPM2 (UniProt Q8WW38)", "log2 fold change": "inactive: 0.07"},
      {"target": "YWHAH (UniProt Q04917)", "log2 fold change": "inactive: -0.032"},
      {"target": "ZEB1 isoform 2 (UniProt P37275)", "log2 fold change": "inactive: 0.057"},
      {"target": "ZFYVE19 (UniProt Q96K21)", "log2 fold change": "inactive: -0.002"},
      {"target": "ZDHHC13 (UniProt Q8IUH4)", "log2 fold change": "inactive: 0.03"},
      {"target": "XPOT (UniProt O43592)", "log2 fold change": "inactive: 0.011"},
      {"target": "ZDHHC17 (UniProt Q8IUH5)", "log2 fold change": "inactive: -0.053"},
      {"target": "YIF1A (UniProt O95070)", "log2 fold change": "inactive: 0.025"},
      {"target": "ZADH2 (UniProt Q8N4Q0)", "log2 fold change": "inactive: 0.075"},
      {"target": "ZFPL1 (UniProt O95159)", "log2 fold change": "inactive: 0.066"},
      {"target": "ZBTB7A (UniProt O95365)", "log2 fold change": "inactive: 0.067"},
      {"target": "XRCC3 (UniProt O43542)", "log2 fold change": "inactive: 0.18"},
      {"target": "ZFAND3 (UniProt Q9H8U3)", "log2 fold change": "inactive: 0.036"},
      {"target": "YAF2 isoform 5 (UniProt Q8IY57)", "log2 fold change": "inactive: -0.029"},
      {"target": "XPNPEP3 (UniProt Q9NQH7)", "log2 fold change": "inactive: 0.02"},
      {"target": "ZBTB3 (UniProt Q9H5J0)", "log2 fold change": "inactive: -0.108"},
      {"target": "ZFAND5 (UniProt O76080)", "log2 fold change": "inactive: -0.038"},
      {"target": "ZBTB10 (UniProt Q96DT7)", "log2 fold change": "inactive: 0.051"},
      {"target": "ZFAND6 (UniProt Q6FIF0)", "log2 fold change": "inactive: -0.015"},
      {"target": "ZBTB2 (UniProt Q8N680)", "log2 fold change": "inactive: 0.031"},
      {"target": "ZBTB40 (UniProt Q9NUA8)", "log2 fold change": "inactive: -0.032"},
      {"target": "YJU2 (UniProt Q9BW85)", "log2 fold change": "inactive: -0.006"}
    ]},
    {"compound": "CNc1nc(-c2ccc3c(N)n[nH]c3c2)cc(N2C[C@@H](C(=O)NC3CCCCC3)CC[C@H]2C)n1", "assay": "log2 fold change, soluble protein after heating vs DMSO (PISA); higher = thermal stabilisation; K562 lysate, 10 uM; active = over 0.2 and 3.5 SD of the protein, either way, in both replicates (recomputed)", "summary_of_the_method": "as §1", "values": [
      {"target": "YAE1 (UniProt Q9NRH1)", "log2 fold change": "inactive: 0.001"},
      {"target": "ZC3H7A (UniProt Q8IWR0)", "log2 fold change": "inactive: -0.048"},
      {"target": "ZDHHC4 (UniProt Q9NPG8)", "log2 fold change": "inactive: -0.017"},
      {"target": "ZFYVE21 isoform 2 (UniProt Q9BQ24)", "log2 fold change": "inactive: 0.099"},
      {"target": "ZCRB1 (UniProt Q8TBF4)", "log2 fold change": "inactive: 0.056"},
      {"target": "ZFP36L2 (UniProt P47974)", "log2 fold change": "inactive: 0.051"},
      {"target": "ZDHHC14 (UniProt Q8IZN3)", "log2 fold change": "inactive: 0.018"},
      {"target": "ZFPM2 (UniProt Q8WW38)", "log2 fold change": "inactive: -0.018"},
      {"target": "YWHAH (UniProt Q04917)", "log2 fold change": "inactive: -0.017"},
      {"target": "ZEB1 isoform 2 (UniProt P37275)", "log2 fold change": "inactive: -0.076"},
      {"target": "ZFYVE19 (UniProt Q96K21)", "log2 fold change": "inactive: 0.008"},
      {"target": "ZDHHC13 (UniProt Q8IUH4)", "log2 fold change": "inactive: 0.122"},
      {"target": "ZBTB24 (UniProt O43167)", "log2 fold change": "inactive: 0.078"},
      {"target": "XPOT (UniProt O43592)", "log2 fold change": "inactive: -0.042"},
      {"target": "ZDHHC17 (UniProt Q8IUH5)", "log2 fold change": "inactive: -0.04"},
      {"target": "ZBTB14 (UniProt O43829)", "log2 fold change": "inactive: -0.007"},
      {"target": "YIF1A (UniProt O95070)", "log2 fold change": "inactive: -0.031"},
      {"target": "ZADH2 (UniProt Q8N4Q0)", "log2 fold change": "inactive: 0.22"},
      {"target": "ZFPL1 (UniProt O95159)", "log2 fold change": "inactive: -0.047"},
      {"target": "ZBTB7A (UniProt O95365)", "log2 fold change": "inactive: 0.044"},
      {"target": "ZFYVE1 (UniProt Q9HBF4)", "log2 fold change": "inactive: 0.019"},
      {"target": "XRCC3 (UniProt O43542)", "log2 fold change": "inactive: 0.093"},
      {"target": "ZFAND3 (UniProt Q9H8U3)", "log2 fold change": "inactive: 0.009"},
      {"target": "YAF2 isoform 5 (UniProt Q8IY57)", "log2 fold change": "inactive: 0.083"},
      {"target": "XPNPEP3 (UniProt Q9NQH7)", "log2 fold change": "inactive: 0.045"},
      {"target": "ZBTB3 (UniProt Q9H5J0)", "log2 fold change": "inactive: -0.055"},
      {"target": "ZC3H12C isoform 2 (UniProt Q9C0D7)", "log2 fold change": "inactive: -0.026"},
      {"target": "ZFAND5 (UniProt O76080)", "log2 fold change": "inactive: 0.067"},
      {"target": "ZFAND1 (UniProt Q8TCF1)", "log2 fold change": "inactive: -0.035"},
      {"target": "ZBTB10 (UniProt Q96DT7)", "log2 fold change": "inactive: -0.008"},
      {"target": "ZFAND6 (UniProt Q6FIF0)", "log2 fold change": "inactive: 0.002"},
      {"target": "ZBTB2 (UniProt Q8N680)", "log2 fold change": "inactive: 0.02"},
      {"target": "ZBTB40 (UniProt Q9NUA8)", "log2 fold change": "inactive: 0.048"},
      {"target": "YY1AP1 isoform 9 (UniProt Q9H869)", "log2 fold change": "inactive: 0.198"},
      {"target": "YJU2 (UniProt Q9BW85)", "log2 fold change": "inactive: -0.017"}
    ]}
  ]
}
